## Primary screen of a compound library

A: 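Whole-cell assay for inhibitors of Mycobacterium tuberculosis growth, labelled Cornell in the record; the read-out is not stated. The concentration is filed as 10 mM, unlikely as a test dose, so the dose is not known. The record gives no direction; compounds strong in two other growth screens of this library score well above the rest, so higher reads as stronger inhibition. Of about 53,000 compounds tested this way, about 900 (1.7%) reached 50% or more in at least one test.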
B: 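Assay on Mycobacterium tuberculosis, filed only as a heat shock assay from Cornell; the read-out is not stated. The concentration is filed as 10 mM, unlikely as a test dose, so the dose is not known. Higher reads as stronger inhibition (inferred: compounds with an IC50 in retests scored well above the rest). Size under these conditions: about 69,000 compounds, about 930 of them at 50% or above in at least one test.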

Values are the deposited “Percent Effect”, in %.
The controls that fix the scale are not given in the record; negative values are as filed.
Compounds were drawn at random from those tested, without regard to their results.

For COc1ccc(CN2CCC(C(N)=O)CC2)cc1SC(F)(F)F the result was A: 13.48%; B: -0.9896%. With NC(=O)CN1CC2(CCC1=O)CCN(Cc1ccc(F)cc1Cl)CC2 the screen gave A: -4.364%; B: -5.091%. CC1CN(C)c2ccccc2N(C(=O)c2ccc(=O)n(C)c2)C1 (centres undefined) read B: -3.922%. With O=C(c1ccccn1)N1CCc2c(nc(-c3ccncc3)[nH]c2=O)C1 the screen gave A: 20.56%; B: -10.2%. Cc1cnn(-c2cncc(C(N)=O)c2)c1 gave A: 19.66%; B: -0.9981%. For COc1cc(C(=O)NCCc2ccc(OC)c(OC)c2)on1 the result was A: 3.015%; B: 10.88%.

For Cc1ccc2c(c1)c(CNC(=O)C1CC(=O)N(CCN(C)C)C1)nn2C (centres undefined) the result was A: -52.92%; B: 31.34%. CC(C)OCCCNC(=O)CS(=O)(=O)Cc1ccc(C(C)C)cc1 read B: -5.749%. Cc1noc(C)c1C(=O)N1CCC2(CC(N(C)c3ccncn3)C2)C1 (centres undefined) gave B: -5.693%. Result for CCOc1ccc(NC(=O)c2cc3c([nH]c2=O)CCC3)cc1 was B: -13.73%. For COC(=O)CCC(=O)N1CCc2nc(C(=O)N(C)C)sc2CC1 the result was A: 23.5%; B: -3.267%. CCN(CC)C(=O)c1ccc(Cl)c(NC(=O)c2cnc(C)cn2)c1 gave B: -16.89%.

CC(C)CN1CCN(C(=O)Nc2cc(C(F)(F)F)c[nH]c2=O)CC1 gave A: 11.45%; B: 2.071%. CCOCCCNC(=O)c1nnn(Cc2ccccc2)c1OC gave B: -20.64%. Cc1cnc(N2CCCn3c(nnc3CN(C)C(C)C)C2)nc1.O=C(O)C(F)(F)F read A: 8.261%; B: 30.79%. NC(=O)CN1CCCN(C(=O)COc2cccc(F)c2)CC1 read A: 3.443%; B: -2.519%. Result for Cc1nc(C)n(CC2CN(CCOCC(F)(F)F)CCO2)n1 (centres undefined) was B: -14.11%. With O=C(NCCNc1ccc(C(F)(F)F)cn1)c1cncc(Br)c1 the screen gave B: 17.03%.

With Cc1cc(C)c(S(=O)(=O)Nc2cccc3c2OCCO3)cc1C(=O)O the screen gave A: 9.973%; B: -21.03%. CCOCCN1CCN(CC(O)c2ccc(F)cc2)CC1 (centres undefined) gave A: -35.73%; B: -19.24%. CCOC(=O)C1(Cc2ccccc2-c2ccccc2OC)CCNCC1.Cl read A: 1.496%; B: 28.16%. With O=C(CCN1CCCCO1)N1CC[C@H](O)[C@@H](O)C1 the screen gave A: 14.35%; B: 2.189%. Result for CN(CC(O)C1CC1)C(=O)c1ccc(-c2nc(C3CC3)n[nH]2)cc1 (centres undefined) was A: 10.34%; B: -14.92%. For COc1ccc(C(=O)N2C[C@@H](NC(=O)N(C)C)[C@H](C(C)C)C2)c(OC)n1 the result was A: 2.665%; B: 13.63%.

Result for O=C(O)C(F)(F)F.O=C(O)C(F)(F)F.O=C(O)C(F)(F)F.[H][C@]12CCCC(N3CCN(c4ncccn4)CC3)[C@@]1([H])CN(CC1CC1)C2 (some centres undefined) was A: 14.68%; B: -9.824%. COc1ccc(NC(=O)c2ccc[nH]2)c(N2CCN(C(C)=O)CC2)n1 read A: 8.319%; B: 6.183%. CN(C)c1ncnc2c1CCN(S(=O)(=O)c1ccccc1C(F)(F)F)C2 read A: -24.1%; B: -15.45%. CCC(=O)N1CCC2(CCN(Cc3cccc(F)c3)CC2)CC1.O=C(O)C(F)(F)F read A: 19.06%; B: -46.07%. Result for CN(C)CCN1CCCC12CCN(C(=O)c1cnccn1)CC2 was A: 8.066%; B: -29.2%. O=C1CC(c2ccc3c(c2)OCO3)c2cnn(C3CCCC3)c2N1 (centres undefined) read A: -18.08%; B: 8.522%.

CC(C)NC(=O)N1CCN(Cc2ccccn2)CC2(CC(=O)N(C)C2)C1.O=C(O)C(F)(F)F.O=C(O)C(F)(F)F (centres undefined) read A: -0.1639%; B: -30.61%. For Cc1nccc(CNc2cc(N3CCCC3CO)ncn2)n1 (centres undefined) the result was B: -19.19%. With CN(C)CCN(Cc1cccc(F)c1)C(=O)c1ccc2nccn2c1 the screen gave A: -3.298%; B: -16.95%. With O=C1N(c2ccsc2)CCC12CCCN(c1ncc(F)cn1)C2 (centres undefined) the screen gave A: 5.418%; B: 26.23%. O=C(O)C(F)(F)F.O=C(O)C(F)(F)F.O=C1COC2(CCN(CC3CCOCC3)CC2)CN1Cc1ccccn1 gave B: -24.93%. Result for [H][C@@]12CS(=O)(=O)C[C@]1([H])NCCN2C(=O)COc1ccc2cccnc2c1 was B: 7.714%.

With CCCc1cc(N2CCC(Cc3cccc(C(N)=O)c3)C2)nc(C)n1 (centres undefined) the screen gave A: -12.31%; B: -8.755%. CNc1snc(C)c1C(=O)N1CCCC(n2cccn2)C1 (centres undefined) read A: 12.85%; B: -5.647%. Cc1nc(C)n(CC(C)C(=O)N2CCC(NS(C)(=O)=O)CC2)n1 (centres undefined) read A: -26.24%; B: -7.035%. With N#Cc1c(Cl)nsc1N1CCN(CC2CCCCC2)CC1 the screen gave A: 20.72%; B: -3.838%. CS(=O)(=O)N1CCCC12CCCN(c1nccs1)C2 (centres undefined) read A: 1.94%; B: 1.209%. For CCN1CCNC(=O)C12CCN(S(=O)(=O)c1ccc(OC)cc1)CC2 the result was B: -9.896%.

With O=c1[nH]c(-c2ccccc2F)nc2c1CCNC2 the screen gave B: -23.66%. CCn1c(CN2CCCC2)nnc1C1CCN(S(=O)(=O)CC)CC1 gave B: -1.59%. COc1cccc(CN2CCC(CO)(Cc3ccc(Cl)cc3)CC2)c1O gave A: 91.19%; B: 11.32%. For Cc1cccc(CN2CCc3ncnc(-c4ccsc4)c3CC2)n1.O=C(O)C(F)(F)F the result was A: 19.87%; B: -6.579%. CNC(=O)Cc1ccc(-n2ccnc2-c2cccc(C(=O)O)c2)cc1 read A: -17.78%; B: -13.99%. Result for CC(=O)C(Cc1ccccc1)NC(=O)CSc1nncn1C (centres undefined) was A: -36.29%; B: 0.09966%.

Once more, the final 5:

- CCn1c(CN2CCCC2)nnc1C1CCN(S(=O)(=O)CC)CC1 | B: -1.59%
- COc1cccc(CN2CCC(CO)(Cc3ccc(Cl)cc3)CC2)c1O | A: 91.19%; B: 11.32%
- Cc1cccc(CN2CCc3ncnc(-c4ccsc4)c3CC2)n1.O=C(O)C(F)(F)F | A: 19.87%; B: -6.579%
- CNC(=O)Cc1ccc(-n2ccnc2-c2cccc(C(=O)O)c2)cc1 | A: -17.78%; B: -13.99%
- CC(=O)C(Cc1ccccc1)NC(=O)CSc1nncn1C (centres undefined) | A: -36.29%; B: 0.09966%

Data taken from ChEMBL document CHEMBL3988442, “University of Dundee, Small-Polar-MMV Screening Library” (2021).